The numbers were not newly measured in patent US10607721B2, “High-throughput, multi-omics approach to determine and validate de novo global mechanisms of action for drugs and toxins” (Vanderbilt University, priority 2015, dated 2020), which cites them from elsewhere.

As a reminder, the IC50 is the concentration at which inhibition is half-maximal.

The data set relates to A549 cells. Particulars: literature (Yang et al., 2013; Zhang et al., 2015); cited from earlier work.

Consider `N.N.[Cl][Pt][Cl]` [cisplatin], for which the IC50 was 18 to 64 µM.
